Assay results published in the supplement of paper PMC12823440, “Inhibitors supercharge kinase turnover through native proteolytic circuits” (Nature, 2025).
Where a name gives a salt, the structure may show the parent alone. The list shows a part of the results. Hit calls seldom repeat between salt and free forms of one compound.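 In K562 cells expressing nanoluciferase-fused kinases, luminescence was recorded at 4 h intervals between 2 and 18 h, normalized as percent of control with DMSO at 100% and a positive control at 0%. A significant (2 sigma) signal drop marks a time point as decreased. The authors' rule for a hit is not shown and takes in more than the number of time points.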

Protein sequences, listed by entry. Tags and fused reporters are not part of them. Lines headed by an entry give the natural chain unless they say otherwise; changes in a name come on top.
UniProt O75460: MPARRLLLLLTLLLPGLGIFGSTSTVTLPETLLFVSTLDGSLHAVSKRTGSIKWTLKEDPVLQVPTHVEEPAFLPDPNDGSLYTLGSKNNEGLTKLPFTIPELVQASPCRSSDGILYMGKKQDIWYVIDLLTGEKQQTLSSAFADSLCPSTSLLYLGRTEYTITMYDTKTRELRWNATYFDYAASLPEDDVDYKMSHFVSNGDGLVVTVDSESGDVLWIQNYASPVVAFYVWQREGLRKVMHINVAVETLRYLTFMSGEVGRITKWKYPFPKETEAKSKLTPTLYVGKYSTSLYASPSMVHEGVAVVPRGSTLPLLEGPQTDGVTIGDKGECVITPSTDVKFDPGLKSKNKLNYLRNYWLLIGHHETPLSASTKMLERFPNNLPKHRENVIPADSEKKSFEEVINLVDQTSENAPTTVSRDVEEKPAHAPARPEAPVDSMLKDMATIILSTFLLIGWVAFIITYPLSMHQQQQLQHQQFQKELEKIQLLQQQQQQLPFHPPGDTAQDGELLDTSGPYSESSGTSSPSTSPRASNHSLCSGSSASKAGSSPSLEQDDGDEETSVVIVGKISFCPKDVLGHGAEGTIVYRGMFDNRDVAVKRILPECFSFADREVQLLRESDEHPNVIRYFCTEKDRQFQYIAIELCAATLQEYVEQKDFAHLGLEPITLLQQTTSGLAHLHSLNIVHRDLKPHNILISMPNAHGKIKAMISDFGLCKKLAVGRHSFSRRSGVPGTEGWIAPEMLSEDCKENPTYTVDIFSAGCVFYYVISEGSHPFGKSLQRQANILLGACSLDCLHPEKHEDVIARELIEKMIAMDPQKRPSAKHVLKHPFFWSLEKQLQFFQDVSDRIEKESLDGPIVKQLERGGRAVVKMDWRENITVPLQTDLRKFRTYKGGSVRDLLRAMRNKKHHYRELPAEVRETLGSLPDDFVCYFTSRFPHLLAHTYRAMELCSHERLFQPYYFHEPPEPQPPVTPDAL
UniProt P11362, whole entry, looked up: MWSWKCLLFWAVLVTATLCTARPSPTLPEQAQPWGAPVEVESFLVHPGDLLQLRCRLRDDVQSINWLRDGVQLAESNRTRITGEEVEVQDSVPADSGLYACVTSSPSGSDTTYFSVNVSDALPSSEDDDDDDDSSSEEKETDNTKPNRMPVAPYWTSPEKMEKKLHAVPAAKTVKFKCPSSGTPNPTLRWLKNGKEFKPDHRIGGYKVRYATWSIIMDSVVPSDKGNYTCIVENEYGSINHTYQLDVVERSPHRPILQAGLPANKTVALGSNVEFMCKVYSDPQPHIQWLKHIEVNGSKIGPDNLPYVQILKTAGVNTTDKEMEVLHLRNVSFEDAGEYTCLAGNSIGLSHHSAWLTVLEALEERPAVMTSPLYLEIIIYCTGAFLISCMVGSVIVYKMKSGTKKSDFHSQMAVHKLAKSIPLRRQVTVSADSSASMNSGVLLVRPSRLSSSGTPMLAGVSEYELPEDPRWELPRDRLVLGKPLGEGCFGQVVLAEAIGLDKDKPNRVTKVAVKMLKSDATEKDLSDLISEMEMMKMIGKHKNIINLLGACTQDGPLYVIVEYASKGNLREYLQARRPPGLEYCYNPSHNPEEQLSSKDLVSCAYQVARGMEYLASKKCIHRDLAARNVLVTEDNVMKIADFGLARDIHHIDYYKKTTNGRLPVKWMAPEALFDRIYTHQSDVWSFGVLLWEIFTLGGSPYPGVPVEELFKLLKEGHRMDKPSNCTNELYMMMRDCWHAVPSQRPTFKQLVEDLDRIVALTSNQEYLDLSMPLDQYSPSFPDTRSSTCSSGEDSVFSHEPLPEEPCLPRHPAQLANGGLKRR
UniProt P21802, whole entry, looked up: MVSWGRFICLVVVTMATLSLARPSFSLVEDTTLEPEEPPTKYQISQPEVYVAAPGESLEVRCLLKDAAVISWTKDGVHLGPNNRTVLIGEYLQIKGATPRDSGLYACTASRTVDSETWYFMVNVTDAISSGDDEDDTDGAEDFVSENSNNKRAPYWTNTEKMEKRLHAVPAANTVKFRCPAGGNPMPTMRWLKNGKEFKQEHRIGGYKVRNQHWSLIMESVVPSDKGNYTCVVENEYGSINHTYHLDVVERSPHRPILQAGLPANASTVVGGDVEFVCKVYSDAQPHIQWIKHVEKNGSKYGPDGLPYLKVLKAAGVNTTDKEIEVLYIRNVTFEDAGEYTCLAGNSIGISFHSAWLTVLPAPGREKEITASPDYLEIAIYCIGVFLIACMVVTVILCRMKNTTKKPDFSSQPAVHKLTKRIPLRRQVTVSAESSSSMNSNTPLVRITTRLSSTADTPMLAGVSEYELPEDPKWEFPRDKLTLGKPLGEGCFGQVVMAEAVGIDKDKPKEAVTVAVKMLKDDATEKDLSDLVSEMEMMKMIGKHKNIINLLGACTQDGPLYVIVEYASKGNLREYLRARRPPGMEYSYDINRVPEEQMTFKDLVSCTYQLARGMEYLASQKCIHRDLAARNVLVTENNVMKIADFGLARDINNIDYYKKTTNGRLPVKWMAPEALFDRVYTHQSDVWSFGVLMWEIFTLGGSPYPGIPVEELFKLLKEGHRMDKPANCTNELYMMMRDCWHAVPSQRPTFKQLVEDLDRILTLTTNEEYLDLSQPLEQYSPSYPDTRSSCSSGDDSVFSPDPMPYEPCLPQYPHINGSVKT
UniProt P36888, whole entry: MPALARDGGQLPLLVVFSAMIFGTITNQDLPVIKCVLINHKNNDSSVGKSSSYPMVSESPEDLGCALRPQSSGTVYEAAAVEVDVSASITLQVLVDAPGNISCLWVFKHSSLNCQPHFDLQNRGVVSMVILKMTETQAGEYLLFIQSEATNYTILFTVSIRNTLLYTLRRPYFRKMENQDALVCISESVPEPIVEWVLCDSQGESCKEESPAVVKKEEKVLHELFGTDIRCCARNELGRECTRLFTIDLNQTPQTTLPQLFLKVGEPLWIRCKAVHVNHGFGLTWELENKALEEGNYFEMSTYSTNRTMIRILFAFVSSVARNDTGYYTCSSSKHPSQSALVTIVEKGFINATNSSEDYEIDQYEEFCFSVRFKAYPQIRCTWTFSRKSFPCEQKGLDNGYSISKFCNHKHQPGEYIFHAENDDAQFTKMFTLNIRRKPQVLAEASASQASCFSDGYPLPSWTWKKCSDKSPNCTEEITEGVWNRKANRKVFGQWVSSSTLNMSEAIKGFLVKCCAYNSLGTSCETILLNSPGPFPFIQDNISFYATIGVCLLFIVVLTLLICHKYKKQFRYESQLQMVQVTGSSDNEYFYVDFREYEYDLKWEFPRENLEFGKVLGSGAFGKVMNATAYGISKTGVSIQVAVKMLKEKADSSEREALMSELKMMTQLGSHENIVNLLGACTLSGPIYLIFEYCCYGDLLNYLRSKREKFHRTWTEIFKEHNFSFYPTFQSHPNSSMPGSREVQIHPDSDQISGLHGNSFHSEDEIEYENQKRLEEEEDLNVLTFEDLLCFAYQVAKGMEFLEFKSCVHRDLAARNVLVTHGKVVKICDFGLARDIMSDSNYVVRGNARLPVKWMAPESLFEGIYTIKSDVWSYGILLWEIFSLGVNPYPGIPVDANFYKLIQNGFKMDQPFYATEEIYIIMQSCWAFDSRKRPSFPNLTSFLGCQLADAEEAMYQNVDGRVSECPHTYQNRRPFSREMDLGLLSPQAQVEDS
UniProt P14616: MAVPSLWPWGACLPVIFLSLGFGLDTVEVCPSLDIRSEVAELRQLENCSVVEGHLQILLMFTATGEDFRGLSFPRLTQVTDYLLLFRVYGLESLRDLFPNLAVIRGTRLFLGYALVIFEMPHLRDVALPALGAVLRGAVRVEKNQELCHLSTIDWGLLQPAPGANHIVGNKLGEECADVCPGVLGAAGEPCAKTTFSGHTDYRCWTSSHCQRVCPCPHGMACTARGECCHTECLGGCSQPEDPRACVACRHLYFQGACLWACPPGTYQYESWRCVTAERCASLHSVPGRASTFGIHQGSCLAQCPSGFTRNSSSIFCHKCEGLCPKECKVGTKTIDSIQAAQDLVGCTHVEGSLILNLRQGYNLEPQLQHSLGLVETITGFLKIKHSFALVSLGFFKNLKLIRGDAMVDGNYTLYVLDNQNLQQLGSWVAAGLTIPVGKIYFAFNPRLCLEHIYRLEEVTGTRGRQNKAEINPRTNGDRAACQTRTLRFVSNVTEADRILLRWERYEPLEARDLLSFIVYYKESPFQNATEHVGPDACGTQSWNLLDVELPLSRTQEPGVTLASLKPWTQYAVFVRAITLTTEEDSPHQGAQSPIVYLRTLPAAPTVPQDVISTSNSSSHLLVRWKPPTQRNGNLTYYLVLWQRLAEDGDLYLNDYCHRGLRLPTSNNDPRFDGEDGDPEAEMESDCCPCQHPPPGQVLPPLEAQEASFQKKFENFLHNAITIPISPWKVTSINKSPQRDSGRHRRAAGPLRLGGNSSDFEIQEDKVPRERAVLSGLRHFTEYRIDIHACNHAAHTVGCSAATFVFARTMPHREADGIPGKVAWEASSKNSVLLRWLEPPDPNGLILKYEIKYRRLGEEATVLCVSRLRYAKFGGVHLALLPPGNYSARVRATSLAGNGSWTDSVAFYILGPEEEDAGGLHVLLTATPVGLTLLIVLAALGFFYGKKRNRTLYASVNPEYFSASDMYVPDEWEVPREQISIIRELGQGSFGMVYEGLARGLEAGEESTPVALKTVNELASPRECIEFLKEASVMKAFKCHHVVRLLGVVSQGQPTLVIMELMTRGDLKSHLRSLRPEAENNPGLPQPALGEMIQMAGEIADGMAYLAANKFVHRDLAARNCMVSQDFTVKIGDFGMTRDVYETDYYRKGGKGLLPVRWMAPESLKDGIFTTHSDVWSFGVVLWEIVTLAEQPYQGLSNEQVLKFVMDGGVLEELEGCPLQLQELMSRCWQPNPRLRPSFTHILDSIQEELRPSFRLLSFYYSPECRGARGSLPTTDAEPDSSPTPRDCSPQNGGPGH
UniProt P23458: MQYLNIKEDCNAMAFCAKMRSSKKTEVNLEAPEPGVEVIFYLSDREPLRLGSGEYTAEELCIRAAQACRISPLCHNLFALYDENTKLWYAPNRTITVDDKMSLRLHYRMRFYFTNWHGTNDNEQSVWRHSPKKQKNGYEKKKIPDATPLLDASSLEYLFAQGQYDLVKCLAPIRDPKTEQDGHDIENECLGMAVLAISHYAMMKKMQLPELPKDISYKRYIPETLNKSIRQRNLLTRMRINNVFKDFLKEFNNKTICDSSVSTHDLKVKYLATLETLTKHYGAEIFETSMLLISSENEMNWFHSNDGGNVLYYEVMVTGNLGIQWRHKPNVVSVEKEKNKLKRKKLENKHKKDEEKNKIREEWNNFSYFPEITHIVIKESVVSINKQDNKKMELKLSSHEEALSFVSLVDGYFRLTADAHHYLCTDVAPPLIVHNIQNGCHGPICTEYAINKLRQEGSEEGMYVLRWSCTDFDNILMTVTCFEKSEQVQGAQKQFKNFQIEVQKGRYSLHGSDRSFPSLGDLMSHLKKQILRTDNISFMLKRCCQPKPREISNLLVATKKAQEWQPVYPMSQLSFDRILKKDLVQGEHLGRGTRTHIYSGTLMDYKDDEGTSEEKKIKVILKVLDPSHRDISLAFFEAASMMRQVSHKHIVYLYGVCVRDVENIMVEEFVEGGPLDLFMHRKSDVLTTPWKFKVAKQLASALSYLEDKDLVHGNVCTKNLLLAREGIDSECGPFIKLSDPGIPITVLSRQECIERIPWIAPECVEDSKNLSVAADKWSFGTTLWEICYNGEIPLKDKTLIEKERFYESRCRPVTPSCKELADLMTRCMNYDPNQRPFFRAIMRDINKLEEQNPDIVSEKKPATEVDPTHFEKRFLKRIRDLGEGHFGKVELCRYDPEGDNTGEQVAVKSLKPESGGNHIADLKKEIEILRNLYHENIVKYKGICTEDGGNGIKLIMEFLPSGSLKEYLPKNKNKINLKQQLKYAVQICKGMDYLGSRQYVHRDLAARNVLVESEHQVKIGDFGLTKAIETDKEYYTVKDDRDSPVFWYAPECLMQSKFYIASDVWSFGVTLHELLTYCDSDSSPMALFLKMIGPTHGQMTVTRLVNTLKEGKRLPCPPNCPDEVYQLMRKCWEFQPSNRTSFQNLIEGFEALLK
UniProt P07948: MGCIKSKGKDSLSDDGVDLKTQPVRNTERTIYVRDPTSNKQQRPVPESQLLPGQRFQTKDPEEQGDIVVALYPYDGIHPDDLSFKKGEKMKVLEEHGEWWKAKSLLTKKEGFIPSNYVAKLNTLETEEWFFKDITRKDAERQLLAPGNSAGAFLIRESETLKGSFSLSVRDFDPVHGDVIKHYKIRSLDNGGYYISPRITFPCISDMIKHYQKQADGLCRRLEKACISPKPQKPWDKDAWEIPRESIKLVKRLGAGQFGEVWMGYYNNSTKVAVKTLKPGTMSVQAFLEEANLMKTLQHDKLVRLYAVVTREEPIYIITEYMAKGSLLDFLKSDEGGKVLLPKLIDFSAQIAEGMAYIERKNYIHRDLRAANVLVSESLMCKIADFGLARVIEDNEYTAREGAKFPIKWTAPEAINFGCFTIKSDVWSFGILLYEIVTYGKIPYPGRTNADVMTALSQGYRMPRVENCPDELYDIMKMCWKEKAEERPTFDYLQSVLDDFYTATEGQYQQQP

Legend:
Experiment in all cases: kinase-Nluc reporter destabilization hit call (1 = scored as downregulated) (binary); higher = compound decreases kinase abundance
Details in all cases: K562; 2-18 h
ERN1 = ERN1 (UniProt O75460)
FGFR1 = FGFR1 (UniProt P11362)
FGFR2 = FGFR2 (UniProt P21802)
FGFR3 = FGFR3 (UniProt P22607)
FGR = FGR (UniProt P09769)
FLT3 = FLT3 (UniProt P36888)
FYN = FYN (UniProt P06241)
GSK3A = GSK3A (UniProt P49840)
HER2 = HER2 (UniProt P04626)
INSRR = INSRR (UniProt P14616)
IRAK3 = IRAK3 (UniProt Q9Y616)
JAK1 = JAK1 (UniProt P23458)
LCK = LCK (UniProt P06239)
LIMK1 = LIMK1 (UniProt P53667)
LIMK2 = LIMK2 (UniProt P53671)
LMTK2 = LMTK2 (UniProt Q8IWU2)
LYN = LYN (UniProt P07948)
MAP2K1 = MAP2K1 (UniProt Q02750)
MAP2K2 = MAP2K2 (UniProt P36507)
MAP4K2 = MAP4K2 (UniProt Q12851)

| Compound | kinase-Nluc reporter destabilization hit call (ERN1) | kinase-Nluc reporter destabilization hit call (FGFR1) | kinase-Nluc reporter destabilization hit call (FGFR2) | kinase-Nluc reporter destabilization hit call (FGFR3) | kinase-Nluc reporter destabilization hit call (FGR) | kinase-Nluc reporter destabilization hit call (FLT3) | kinase-Nluc reporter destabilization hit call (FYN) | kinase-Nluc reporter destabilization hit call (GSK3A) | kinase-Nluc reporter destabilization hit call (HER2) | kinase-Nluc reporter destabilization hit call (INSRR) | kinase-Nluc reporter destabilization hit call (IRAK3) | kinase-Nluc reporter destabilization hit call (JAK1) | kinase-Nluc reporter destabilization hit call (LCK) | kinase-Nluc reporter destabilization hit call (LIMK1) | kinase-Nluc reporter destabilization hit call (LIMK2) | kinase-Nluc reporter destabilization hit call (LMTK2) | kinase-Nluc reporter destabilization hit call (LYN) | kinase-Nluc reporter destabilization hit call (MAP2K1) | kinase-Nluc reporter destabilization hit call (MAP2K2) | kinase-Nluc reporter destabilization hit call (MAP4K2) |
| --- | --- | --- | --- | --- | --- | --- | --- | --- | --- | --- | --- | --- | --- | --- | --- | --- | --- | --- | --- | --- |
| C[C@H](CN(C)C)Oc1nc(Nc2cc3cccc(Cl)c3cn2)cnc1C#N (10 µM) | inactive: 0 | inactive: 0 | inactive: 0 | inactive: 0 | inactive: 0 | inactive: 0 | inactive: 0 | inactive: 0 | inactive: 0 | inactive: 0 | inactive: 0 | inactive: 0 | inactive: 0 | inactive: 0 | inactive: 0 | inactive: 0 | inactive: 0 | inactive: 0 | inactive: 0 | inactive: 0 |
| CCCCC[C@H](O)CC(=O)CCc1ccc(O)c(OC)c1 [[6]-Gingerol] (10 µM) | inactive: 0 | inactive: 0 | inactive: 0 | inactive: 0 | inactive: 0 | inactive: 0 | inactive: 0 | inactive: 0 | inactive: 0 | inactive: 0 | inactive: 0 | inactive: 0 | inactive: 0 | inactive: 0 | inactive: 0 | inactive: 0 | inactive: 0 | inactive: 0 | inactive: 0 | inactive: 0 |
| Nc1ncnc2c1c(-c1ccc(Oc3ccccc3)cc1)cn2C1CCCC1 (2.5 µM) | inactive: 0 | inactive: 0 | inactive: 0 | inactive: 0 | inactive: 0 | inactive: 0 | inactive: 0 | inactive: 0 | inactive: 0 | inactive: 0 | inactive: 0 | inactive: 0 | – | inactive: 0 | inactive: 0 | inactive: 0 | inactive: 0 | inactive: 0 | inactive: 0 | inactive: 0 |
| O=C1Cc2c([nH]c3ccc(Br)cc23)-c2ncccc2N1 [1-Azakenpaullone] (10 µM) | inactive: 0 | inactive: 0 | inactive: 0 | inactive: 0 | inactive: 0 | inactive: 0 | inactive: 0 | inactive: 0 | inactive: 0 | inactive: 0 | inactive: 0 | inactive: 0 | inactive: 0 | inactive: 0 | inactive: 0 | inactive: 0 | inactive: 0 | inactive: 0 | inactive: 0 | inactive: 0 |
| COc1cc2ncn(-c3cc(OCc4ccccc4C(F)(F)F)c(C(N)=O)s3)c2cc1OC (10 µM) | inactive: 0 | inactive: 0 | inactive: 0 | inactive: 0 | inactive: 0 | inactive: 0 | inactive: 0 | inactive: 0 | inactive: 0 | inactive: 0 | inactive: 0 | inactive: 0 | inactive: 0 | inactive: 0 | inactive: 0 | inactive: 0 | inactive: 0 | inactive: 0 | inactive: 0 | inactive: 0 |
| Cn1c(=O)c(Oc2ccc(F)cc2F)cc2cnc(NC3CCOCC3)nc21 [R1487 (Hydrochloride)] (10 µM) | inactive: 0 | inactive: 0 | inactive: 0 | inactive: 0 | inactive: 0 | inactive: 0 | inactive: 0 | inactive: 0 | inactive: 0 | inactive: 0 | inactive: 0 | inactive: 0 | – | inactive: 0 | inactive: 0 | inactive: 0 | inactive: 0 | inactive: 0 | inactive: 0 | inactive: 0 |
| O=C(Nc1cc(C(F)(F)F)ccc1N1CCN(Cc2ccccn2)CC1)c1ccc(-c2ccncc2)o1 (10 µM) | inactive: 0 | inactive: 0 | inactive: 0 | inactive: 0 | inactive: 0 | inactive: 0 | inactive: 0 | inactive: 0 | active: 1 | inactive: 0 | inactive: 0 | inactive: 0 | inactive: 0 | inactive: 0 | inactive: 0 | inactive: 0 | inactive: 0 | inactive: 0 | inactive: 0 | inactive: 0 |
| c1cc(OCCN2CCCCC2)cc(-c2n[nH]c3ccc(-c4nnc[nH]4)cc23)c1 [CC-401 (hydrochloride)] (10 µM) | inactive: 0 | inactive: 0 | inactive: 0 | inactive: 0 | inactive: 0 | inactive: 0 | inactive: 0 | inactive: 0 | inactive: 0 | inactive: 0 | inactive: 0 | inactive: 0 | inactive: 0 | inactive: 0 | inactive: 0 | inactive: 0 | inactive: 0 | inactive: 0 | inactive: 0 | inactive: 0 |
| O=C(c1ccc(-c2ccc(Cl)cc2)o1)N(Cc1ccccn1)c1ccc(N2CCNCC2)cc1 [MK2-IN-1 (hydrochloride)] (10 µM) | inactive: 0 | inactive: 0 | inactive: 0 | inactive: 0 | inactive: 0 | inactive: 0 | inactive: 0 | inactive: 0 | inactive: 0 | inactive: 0 | inactive: 0 | inactive: 0 | inactive: 0 | inactive: 0 | inactive: 0 | inactive: 0 | inactive: 0 | inactive: 0 | inactive: 0 | inactive: 0 |
| O=c1cc(N2CCOCC2)oc2c(-c3ccccc3)cccc12 (10 µM) | inactive: 0 | inactive: 0 | inactive: 0 | inactive: 0 | inactive: 0 | inactive: 0 | inactive: 0 | inactive: 0 | inactive: 0 | inactive: 0 | inactive: 0 | inactive: 0 | – | inactive: 0 | inactive: 0 | inactive: 0 | inactive: 0 | inactive: 0 | inactive: 0 | inactive: 0 |
| COc1ccc(F)c(F)c1C(=O)c1cnc(NC2CCN(S(C)(=O)=O)CC2)nc1N (2.5 µM) | inactive: 0 | inactive: 0 | inactive: 0 | inactive: 0 | inactive: 0 | inactive: 0 | inactive: 0 | inactive: 0 | inactive: 0 | inactive: 0 | inactive: 0 | inactive: 0 | inactive: 0 | inactive: 0 | inactive: 0 | inactive: 0 | inactive: 0 | inactive: 0 | inactive: 0 | inactive: 0 |
| COc1ccc2c(NC(=O)Nc3cccc(C(F)(F)F)n3)ccnc2c1 (10 µM) | inactive: 0 | inactive: 0 | inactive: 0 | inactive: 0 | inactive: 0 | inactive: 0 | inactive: 0 | inactive: 0 | inactive: 0 | inactive: 0 | inactive: 0 | inactive: 0 | inactive: 0 | inactive: 0 | inactive: 0 | inactive: 0 | inactive: 0 | inactive: 0 | inactive: 0 | inactive: 0 |
| C=CC(=O)N1CC[C@H](n2nc(C#Cc3cc(OC)cc(OC)c3)c3c(N)ncnc32)C1 [Futibatinib] (10 µM) | inactive: 0 | inactive: 0 | – | inactive: 0 | inactive: 0 | inactive: 0 | inactive: 0 | inactive: 0 | inactive: 0 | inactive: 0 | inactive: 0 | inactive: 0 | inactive: 0 | inactive: 0 | inactive: 0 | inactive: 0 | inactive: 0 | inactive: 0 | inactive: 0 | inactive: 0 |
